In the assay the target is T1, Vascular endothelial (VE)-cadherin (human (endogenous in HUVEC)) (UniProt P33151).
T1 sequence: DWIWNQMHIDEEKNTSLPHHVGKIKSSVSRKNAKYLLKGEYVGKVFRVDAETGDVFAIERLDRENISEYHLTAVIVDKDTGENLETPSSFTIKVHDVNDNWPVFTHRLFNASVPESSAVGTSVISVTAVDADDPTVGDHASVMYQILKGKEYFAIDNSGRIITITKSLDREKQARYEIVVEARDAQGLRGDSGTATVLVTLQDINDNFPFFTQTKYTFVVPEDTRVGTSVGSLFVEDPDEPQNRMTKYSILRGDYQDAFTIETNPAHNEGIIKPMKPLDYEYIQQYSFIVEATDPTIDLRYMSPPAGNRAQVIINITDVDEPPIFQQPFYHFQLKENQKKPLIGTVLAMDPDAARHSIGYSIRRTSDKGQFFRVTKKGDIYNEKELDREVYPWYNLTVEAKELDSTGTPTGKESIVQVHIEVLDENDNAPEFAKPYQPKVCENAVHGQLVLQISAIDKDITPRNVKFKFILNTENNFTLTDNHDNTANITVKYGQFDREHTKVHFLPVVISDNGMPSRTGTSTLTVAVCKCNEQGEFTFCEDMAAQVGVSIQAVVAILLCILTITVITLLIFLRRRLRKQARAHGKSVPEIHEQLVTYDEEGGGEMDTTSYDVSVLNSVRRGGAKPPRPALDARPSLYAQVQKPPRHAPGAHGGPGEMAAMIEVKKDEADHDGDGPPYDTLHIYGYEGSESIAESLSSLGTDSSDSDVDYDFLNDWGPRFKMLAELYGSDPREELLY
Nature of the assay: affinity purification with mass spectrometry; 0.7 mg HUVEC lysate (si ctr or si LASSIE, 48 h post transfection) with anti-VE-cadherin antibody and Dynabeads protein G, 1.5 h at 4 °C; 25 mM Tris-HCl pH 7.5, 100 mM NaCl, 10 mM MgCl2, 1 mM EDTA, 10% glycerol, 1% NP-40; beads analysed by MS.

Sequences of proteins named here, by UniProt entry; tags and fusion partners are left off.
UniProt Q07065: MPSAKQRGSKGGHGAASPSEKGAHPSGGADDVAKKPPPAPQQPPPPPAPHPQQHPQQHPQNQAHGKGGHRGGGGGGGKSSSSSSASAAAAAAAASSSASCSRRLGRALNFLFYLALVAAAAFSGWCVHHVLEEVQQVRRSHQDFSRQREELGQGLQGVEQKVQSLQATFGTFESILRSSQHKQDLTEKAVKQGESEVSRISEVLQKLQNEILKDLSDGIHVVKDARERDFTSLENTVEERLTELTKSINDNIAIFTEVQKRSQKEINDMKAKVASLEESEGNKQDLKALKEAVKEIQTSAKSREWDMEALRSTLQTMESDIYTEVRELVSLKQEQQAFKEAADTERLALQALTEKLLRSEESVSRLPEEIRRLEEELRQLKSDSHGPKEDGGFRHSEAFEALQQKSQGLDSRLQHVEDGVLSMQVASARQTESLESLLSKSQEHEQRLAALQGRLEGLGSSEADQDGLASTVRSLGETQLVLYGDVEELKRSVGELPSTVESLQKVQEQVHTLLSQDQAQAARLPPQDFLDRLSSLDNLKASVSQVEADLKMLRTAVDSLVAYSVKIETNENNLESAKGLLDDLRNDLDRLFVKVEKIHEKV
UniProt P48681: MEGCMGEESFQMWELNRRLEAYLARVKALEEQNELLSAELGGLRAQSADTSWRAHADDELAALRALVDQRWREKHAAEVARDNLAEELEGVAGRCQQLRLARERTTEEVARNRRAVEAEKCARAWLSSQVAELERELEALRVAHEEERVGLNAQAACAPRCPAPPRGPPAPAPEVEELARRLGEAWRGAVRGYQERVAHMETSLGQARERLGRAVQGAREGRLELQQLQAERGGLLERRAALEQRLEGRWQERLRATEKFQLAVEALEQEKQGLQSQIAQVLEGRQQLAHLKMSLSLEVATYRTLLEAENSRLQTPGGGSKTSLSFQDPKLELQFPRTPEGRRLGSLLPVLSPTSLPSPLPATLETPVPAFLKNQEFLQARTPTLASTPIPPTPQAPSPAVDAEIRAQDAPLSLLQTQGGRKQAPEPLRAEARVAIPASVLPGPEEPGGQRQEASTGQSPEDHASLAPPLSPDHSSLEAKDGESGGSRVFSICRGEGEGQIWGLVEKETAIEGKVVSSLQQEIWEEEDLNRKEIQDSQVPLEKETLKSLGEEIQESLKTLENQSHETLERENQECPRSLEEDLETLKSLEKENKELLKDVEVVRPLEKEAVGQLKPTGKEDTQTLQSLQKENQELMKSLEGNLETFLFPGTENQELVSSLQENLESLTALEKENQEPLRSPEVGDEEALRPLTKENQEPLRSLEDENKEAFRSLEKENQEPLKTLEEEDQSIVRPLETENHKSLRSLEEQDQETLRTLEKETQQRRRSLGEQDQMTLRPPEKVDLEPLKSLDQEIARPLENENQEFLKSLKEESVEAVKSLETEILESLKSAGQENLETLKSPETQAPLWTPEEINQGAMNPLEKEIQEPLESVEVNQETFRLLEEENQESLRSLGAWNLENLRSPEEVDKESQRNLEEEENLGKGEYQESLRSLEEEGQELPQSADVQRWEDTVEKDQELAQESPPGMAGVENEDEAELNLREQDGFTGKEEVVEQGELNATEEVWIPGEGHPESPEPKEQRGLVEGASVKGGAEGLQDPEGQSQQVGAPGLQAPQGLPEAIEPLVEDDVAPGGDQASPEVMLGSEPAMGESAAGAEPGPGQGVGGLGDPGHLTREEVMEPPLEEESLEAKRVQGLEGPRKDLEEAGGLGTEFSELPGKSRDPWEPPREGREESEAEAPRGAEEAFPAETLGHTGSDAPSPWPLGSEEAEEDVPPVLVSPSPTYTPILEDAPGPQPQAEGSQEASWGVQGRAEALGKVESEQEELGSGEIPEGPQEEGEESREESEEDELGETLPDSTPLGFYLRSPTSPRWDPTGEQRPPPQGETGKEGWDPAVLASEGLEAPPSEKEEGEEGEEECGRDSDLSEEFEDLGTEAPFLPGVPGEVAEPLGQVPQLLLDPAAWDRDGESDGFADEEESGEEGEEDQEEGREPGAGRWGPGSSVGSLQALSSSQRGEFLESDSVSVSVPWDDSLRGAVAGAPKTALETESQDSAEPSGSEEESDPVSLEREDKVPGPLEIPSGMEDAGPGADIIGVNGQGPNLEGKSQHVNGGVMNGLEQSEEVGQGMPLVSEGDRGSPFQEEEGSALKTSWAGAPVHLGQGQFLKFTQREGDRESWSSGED

Results are given in words; binding and its absence hold for the method and conditions named. In cells and extracts the contact can be indirect. A yes stands for co-enrichment or nearness to the bait. Other partners may have been found.

In the case of CKAP4 (from UniProt Q07065 1-602), the binding result was “binds”. The same measure for nestin (from UniProt P48681 1-1621): “binds”.

Values taken from paper PMC7251106.
